Measurements as given in the supplement of paper PMC8728848.
Some of the results follow.

Columns and labels:
Experiment in all cases: glycan array binding signal (z-score within array); higher = stronger binding
Conditions in all cases: glycan notation: IUPAC condensed, linker removed
[1] = biological target: GalNAc(b1-4)GlcNAc(b1-3)GalNAc(b1-4)GlcNAc
Summary of the method: (§1)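 Negative Z-scores can be read as non-binding. The Z-score is calculated within each array and then averaged across arrays of one protein sequence at different concentrations or buffers and across linkers. Arrays, 3228 in all, were curated from the Consortium for Functional Glycomics database and kept only where the protein sequence was available.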

GalNAc(b1-4)GlcNAc6S = biological target: GalNAc(b1-4)GlcNAc6S
Summary of the method: as §1

GalNAc(b1-6)GalNAc = biological target: GalNAc(b1-6)GalNAc
Summary of the method: as §1

GalNAc3S(b1-4)GlcNAc = biological target: GalNAc3S(b1-4)GlcNAc
Summary of the method: as §1

GalNAc3S(b1-4)GlcNAc3S = biological target: GalNAc3S(b1-4)GlcNAc3S
Summary of the method: as §1

[2] = biological target: GalNAc3S(b1-4)[Fuc(a1-3)]GlcNAc
Summary of the method: as §1

GalNAc4S6S(b1-4)GlcNAc = biological target: GalNAc4S6S(b1-4)GlcNAc
Summary of the method: as §1

GalNAc6S(b1-4)GlcNAc = biological target: GalNAc6S(b1-4)GlcNAc
Summary of the method: as §1

Glc(a1-4)Glc = biological target: Glc(a1-4)Glc
Summary of the method: as §1

[3] = biological target: Glc(a1-4)Glc(a1-4)Glc(a1-4)Glc
Summary of the method: as §1

Glc(a1-6)Glc(a1-6)Glc = biological target: Glc(a1-6)Glc(a1-6)Glc
Summary of the method: as §1

[4] = biological target: Glc(a1-6)Glc(a1-6)Glc(a1-6)Glc
Summary of the method: as §1

Glc(b1-4)Glc = biological target: Glc(b1-4)Glc
Summary of the method: as §1

Glc(b1-6)Glc = biological target: Glc(b1-6)Glc
Summary of the method: as §1

GlcA(b1-3)Gal = biological target: GlcA(b1-3)Gal
Summary of the method: as §1

GlcA(b1-3)GlcNAc = biological target: GlcA(b1-3)GlcNAc
Summary of the method: as §1

GlcA(b1-6)Gal = biological target: GlcA(b1-6)Gal
Summary of the method: as §1

[5] = biological target: GlcA3S(b1-3)Gal(b1-4)GlcNAc(b1-2)Man
Summary of the method: as §1

[6] = biological target: GlcA3S(b1-3)Gal(b1-4)GlcNAc(b1-3)Gal(b1-4)Glc
Summary of the method: as §1

[7] = biological target: GlcNAc(a1-3)Gal(b1-4)GlcNAc
Summary of the method: as §1

[8] = biological target: GlcNAc(a1-4)Gal(b1-3)GlcNAc
Summary of the method: as §1

[9] = biological target: GlcNAc(a1-4)Gal(b1-4)GalNAc
Summary of the method: as §1

[10] = biological target: GlcNAc(a1-4)Gal(b1-4)GlcNAc
Summary of the method: as §1

[11] = biological target: GlcNAc(a1-4)Gal(b1-4)GlcNAc(b1-3)Gal(b1-4)Glc
Summary of the method: as §1

[12] = biological target: GlcNAc(a1-4)Gal(b1-4)GlcNAc(b1-3)Gal(b1-4)GlcNAc
Summary of the method: as §1

[13] = biological target: GlcNAc(a1-4)Gal(b1-4)GlcNAc(b1-3)Gal(b1-4)GlcNAc(b1-3)Gal(b1-4)GlcNAc
Summary of the method: as §1

[14] = biological target: GlcNAc(a1-4)Gal(b1-4)GlcNAc(b1-3)Gal(b1-4)[Fuc(a1-3)]GlcNAc(b1-3)Gal(b1-4)[Fuc(a1-3)]GlcNAc
Summary of the method: as §1

[15] = biological target: GlcNAc(a1-6)Gal(b1-4)GlcNAc
Summary of the method: as §1

[16] = biological target: GlcNAc(b1-2)Gal(b1-3)GalNAc
Summary of the method: as §1

[17] = biological target: GlcNAc(b1-2)Man(a1-3)[GlcNAc(b1-2)Man(a1-6)]Man(b1-4)GlcNAc(b1-4)GlcNAc
Summary of the method: as §1

[18] = biological target: GlcNAc(b1-2)Man(a1-3)[GlcNAc(b1-2)Man(a1-6)]Man(b1-4)GlcNAc(b1-4)[Fuc(a1-6)]GlcNAc
Summary of the method: as §1

[19] = biological target: GlcNAc(b1-2)Man(a1-3)[GlcNAc(b1-4)][GlcNAc(b1-2)Man(a1-6)]Man(b1-4)GlcNAc(b1-4)GlcNAc
Summary of the method: as §1

[20] = biological target: GlcNAc(b1-2)Man(a1-3)[GlcNAc(b1-4)][GlcNAc(b1-2)Man(a1-6)]Man(b1-4)GlcNAc(b1-4)[Fuc(a1-6)]GlcNAc
Summary of the method: as §1

[21] = biological target: GlcNAc(b1-2)[GlcNAc(b1-4)]Man(a1-3)[GlcNAc(b1-2)Man(a1-6)]Man(b1-4)GlcNAc(b1-4)GlcNAc
Summary of the method: as §1

[22] = biological target: GlcNAc(b1-2)[GlcNAc(b1-4)]Man(a1-3)[GlcNAc(b1-4)][GlcNAc(b1-2)Man(a1-6)]Man(b1-4)GlcNAc(b1-4)GlcNAc
Summary of the method: as §1

[23] = biological target: GlcNAc(b1-2)[GlcNAc(b1-4)]Man(a1-3)[GlcNAc(b1-4)][GlcNAc(b1-2)[GlcNAc(b1-6)]Man(a1-6)]Man(b1-4)GlcNAc(b1-4)GlcNAc
Summary of the method: as §1

[24] = biological target: GlcNAc(b1-2)[GlcNAc(b1-4)]Man(a1-3)[GlcNAc(b1-4)][GlcNAc(b1-2)[GlcNAc(b1-6)]Man(a1-6)]Man(b1-4)GlcNAc(b1-4)[Fuc(a1-6)]GlcNAc
Summary of the method: as §1

[25] = biological target: GlcNAc(b1-2)[GlcNAc(b1-6)]Man(a1-6)[GlcNAc(b1-2)Man(a1-3)]Man(b1-4)GlcNAc(b1-4)GlcNAc
Summary of the method: as §1

B1: LlpA1 (Pseudomonas fluorescens), Q4KHC3 (protein)
chain: MGSSHHHHHHSSGLVPRGSHMAWIRYDFTDNGSSVLPARYYMAPNQYLQSPNKRFKLLFQADGNLALYDGAQLAWVADQNTPFTNVSKGNKKDPMMVFMNYGFVLDDPLRGRIWSTTPSDPTMGSREDASLRAFTQVQDDGNIVTVDTIPHWYAPNGRVFTPAVGAAMIIGGTTELVPGQFYSAGEHSLVFQGDGNLVVYGPNSSVIWATYTQNKGGVRCVMQEDGNLVIYAANNGVVWQSGTGGHPGATIRLQANGSFTIVTERPVWARFGYTPTIKPPRVFYPDHKWKTGSYTWNNVF
glycan array binding signal (z-score) [1]: 0.269 | glycan array binding signal (z-score) (GalNAc(b1-4)GlcNAc6S): 1.64 | glycan array binding signal (z-score) (GalNAc(b1-6)GalNAc): 0.428 | glycan array binding signal (z-score) (GalNAc3S(b1-4)GlcNAc): 0.397 | glycan array binding signal (z-score) (GalNAc3S(b1-4)GlcNAc3S): -0.175 | glycan array binding signal (z-score) [2]: -0.405 | glycan array binding signal (z-score) (GalNAc4S6S(b1-4)GlcNAc): -0.403 | glycan array binding signal (z-score) (GalNAc6S(b1-4)GlcNAc): 1.35 | glycan array binding signal (z-score) (Glc(a1-4)Glc): 0.211 | glycan array binding signal (z-score) [3]: 0.295 | glycan array binding signal (z-score) (Glc(a1-6)Glc(a1-6)Glc): -0.682 | glycan array binding signal (z-score) [4]: -0.031 | glycan array binding signal (z-score) (Glc(b1-4)Glc): -1.02 | glycan array binding signal (z-score) (Glc(b1-6)Glc): 0.393 | glycan array binding signal (z-score) (GlcA(b1-3)Gal): -0.612 | glycan array binding signal (z-score) (GlcA(b1-3)GlcNAc): -0.144 | glycan array binding signal (z-score) (GlcA(b1-6)Gal): 0.961 | glycan array binding signal (z-score) [5]: -0.031 | glycan array binding signal (z-score) [6]: -0.325 | glycan array binding signal (z-score) [7]: -0.576 | glycan array binding signal (z-score) [8]: -0.565 | glycan array binding signal (z-score) [9]: 0.679 | glycan array binding signal (z-score) [10]: 0.41 | glycan array binding signal (z-score) [11]: -0.071 | glycan array binding signal (z-score) [12]: -0.712 | glycan array binding signal (z-score) [13]: 0.547 | glycan array binding signal (z-score) [14]: 1.66 | glycan array binding signal (z-score) [15]: 0.29 | glycan array binding signal (z-score) [16]: -0.414 | glycan array binding signal (z-score) [17]: -0.57 | glycan array binding signal (z-score) [18]: -0.441 | glycan array binding signal (z-score) [19]: 0.104 | glycan array binding signal (z-score) [20]: -0.214 | glycan array binding signal (z-score) [21]: 0.978 | glycan array binding signal (z-score) [22]: -0.524 | glycan array binding signal (z-score) [23]: -0.345 | glycan array binding signal (z-score) [24]: -0.256 | glycan array binding signal (z-score) [25]: 0.068
